Assay results from patent US11202821B2, “Glucose oxidase compositions” (VEGANUTRITECH LLP, priority 2016, dated 2021).

Experiments:
[1] = background statement; cited from earlier work
[2] = Sweetness levels and after taste comparison (taste evaluation); parameters: species or system human; conditions: for Sweetness index: sweetness intensity on a scale of 0-5, 0 = no perceptible sweetness, 5 = sweetness of sugar, 10 ml sample

Row | Compound | glycemic index [1] | After-taste [2] | Sweetness index [2]
1 | O.O=C[C@H](O)[C@@H](O)[C@H](O)[C@H](O)CO [Dextrose monohydrate] | ≥ 100 | – | –
2 | OC[C@H]1OC(O)[C@H](O)[C@@H](O)[C@@H]1O (some centres unmarked) [Glucose] | 100 | No | 2
3 | maltodextrin | 110 | – | –
4 | OC[C@H]1O[C@@](CO)(O[C@H]2O[C@H](CO)[C@@H](O)[C@H](O)[C@H]2O)[C@@H](O)[C@@H]1O [Sugar] | 65 | No | 5
